Measured values taken from patent US9061004B2, “15-PGDH in colon cancer” (Case Western Reserve University, priority 2009, dated 2015).
For at least one compound, name, drawing or mass did not settle the structure.

Legend:
15-PGDH = 15-PGDH Western blot of colon mucosa; assay type: in vivo, mouse; details: celecoxib treated versus untreated wild-type mice, 2 weeks diet
colon adenomas = details: individuals with non-familial sporadic colon adenomas; cited from earlier work
colorectal adenomas [1] = details: 200 mg or 400 mg twice daily versus placebo, 2035 patients; cited from earlier work
colorectal adenomas [2] = assay: Adenoma Prevention with Celecoxib (APC) trial, recurrent adenomas at 36 months; assay type: in vivo, human; details: of 16 high-risk individuals, 36 months of daily celecoxib
Text: To test this hypothesis, we examined frozen biopsies of rectal mucosa obtained from 16 individuals at the time of their enrollment in the Adenoma Prevention with Celecoxib (APC) trial (Bertagnolli, M. M. et al., (2006) N Engl J Med 355, 873-84). These individuals were all at high risk for colon adenoma development based on having had multiple colon adenomas and/or adenomas greater than 5 mm in diameter prior to their enrollment. Following clearing of their colonic adenomas by colonoscopy, each individual received 36-months of daily treatment with celecoxib (Bertagnolli, M. M. et al., (2006) N Engl J Med 355, 873-84). […] In total 9 new adenomas were detected in these patients (FIG. 3). 15-PGDH levels among individuals who developed new adenomas were lower than 15-PGDH levels among individuals who remained adenoma free (P=0.04) (FIG. 3). […] The relationship of low 15-PGDH level to celecoxib resistance becomes even stronger if analyzed in terms of the numbers of new adenomas that individuals developed, with 8 of the 9 adenomatous polyps that recurred during celecoxib treatment arising in individuals with colonic 15-PGDH values below the cohort median (P=0.01), and with all 9 new adenomas arising in individuals with colonic 15-PGDH below the cohort mean (P=0.001) (FIG. 3). […]

PGE2 = assay: Colonic mucosal PGE2 levels by LC/MS/MS after 2 weeks of celecoxib diet; assay type: in vivo, mouse; details: knockout versus wild-type, both celecoxib treated
Method: To further investigate the mechanism of celecoxib's dependence on 15-PGDH, we determined PGE2 levels in colonic mucosa of FVB mice under different experimental conditions. Consistent with the role of 15-PGDH in mediating prostaglandin degradation, 15-PGDH gene knockout essentially doubled FVB colonic PGE2 levels (9.1±1.5 ng/mg protein in knockouts versus 5.70±0.8 ng/mg protein in controls, P=0.04) (FIG. 1D). […] In contrast, in 15-PGDH knockout mice the biochemical activity of celecoxib was much attenuated, with the drug lowering PGE2 levels to only 4.7±0.8 ng/mg protein. […] In overview, the efficacy of celecoxib in lowering colonic PGE2 levels in these different models closely paralleled the drug's anti-tumor activity (FIG. 1D versus FIG. 1A, 1B), and mice that lacked 15-PGDH equally acquired resistance to celecoxib's biochemical activity of lowering colonic PGE2 and to celecoxib's phenotypic effect of preventing colon tumors. Celecoxib resistance of 15-PGDH null mice was not due to any change in drug absorption or catabolism, as tissue levels of celecoxib were indistinguishable between drug treated 15-PGDH wild-type and null mice (39.5±9.7 versus 37.7±7.6 ng/mg protein, P=0.7) (FIG. 2A). […] Rather, the effective depletion of colonic PGE2 required the COX-2 inhibitor drug to act in concert with the independent prostaglandin degrading activity of 15-PGDH. […]

AOM induced colon tumors = assay: AOM induced colon tumor development in FVB mice on dietary celecoxib; assay type: in vivo, mouse; details: 15-PGDH null animals
Text: To conduct this study FVB mice were selected, chosen because at baseline this mouse strain is sensitive to AOM induced colon tumors (Nambiar, P. R. et al., (2003) Int J Oncol 22, 145-50). In 15-PGDH wild-type FVB mice, AOM induced 2.3±0.4 tumors per mouse colon (FIG. 1A, 1C), which on histology review were all adenomatous lesions. As in human trials, administering dietary celecoxib protected wild-type FVB mice against colon tumor development, reducing adenoma development to 0.7±0.3 tumors per mouse (P=0.003) (FIG. 1A, 1C). Furthermore, while nearly all tumors arising in control mice exceeded 1 mm in size, tumors in celecoxib treated mice rarely reached this size (2.2±0.4 versus 0.3±0.1, P<0.0001) (FIG. 1B).
Dietary celecoxib could thus near completely protect wild-type FVB mice from developing colon tumors. […] Thus, celecoxib treated 15-PGDH null mice developed 5.5-fold more colon adenomas than did their celecoxib treated 15-PGDH wild-type littermates (3.9±0.8 versus 0.7±0.3, P=0.0001) (FIG. 1A, 1C). Moreover, all colonic adenomas arising in celecoxib treated knockout mice were large, each exceeding 1 mm in size; whereas, large tumors were nearly completely absent in celecoxib treated 15-PGDH wild-type mice (3.9±0.8 large tumors per knockout mouse versus 0.3±0.1 per wild-type, P=0.0001) (FIG. 1B, 1C). […]

15-PGDH mRNA = details: cited from earlier work

Structure (SMILES) | Effect on colonic 15-PGDH protein levels (Western blot) (15-PGDH) | Reduction of the risk of developing adenomas with advanced histology (colon adenomas) | Reduction of the risk of developing future adenomas (colon adenomas) | Incidence of adenomas at end of 36 month surveillance interval (colorectal adenomas [1]) | Individuals who developed new adenomas (resistant to treatment) (colorectal adenomas [2]) | PGE2 level in drug treated knockout mice relative to drug treated wild-type mice (PGE2) | Prevention of tumor induction (AOM induced colon tumors) | Effect on 15-PGDH mRNA levels (15-PGDH mRNA)
Cc1ccc(-c2cc(C(F)(F)F)nn2-c2ccc(S(N)(=O)=O)cc2)cc1 [celecoxib] | did not regulate 15-PGDH levels | 57-64% | 33-45% | significantly reduced | four | three-fold | essentially inactive | –
CCCC(=O)O [butyrate] | – | – | – | – | – | – | – | induce 15-PGDH mRNA levels
